Measurements reported in PubChem BioAssay AID504744 (Drosophila RNAi Screening Center, 2011).

- Assay: 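Find genes whose loss alters insulin-driven dAkt phosphorylation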 (primary screen)
- Cells: Drosophila Kc167 cells
- Knock-down reagent: long dsRNA against Drosophila genes, 250 ng dsRNA per well of a 384-well plate
- Duration: 3 days of knock-down, then overnight serum-free starvation before stimulation
- Challenge: bovine insulin at 387 nM for 10 minutes after 12 h without serum
- Measured: 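In-cell antibody fluorescence for phospho-dAkt in each well over DNA-dye signal, with log2 residuals expressed as z-scores adjusted for cell count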
- Call rule: 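Under insulin, a gene counts as a hit if the average z-score of two replicates lies above 2.5 or below -2.5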
The screen tested about 23,000 reagents; shown is an unselected part of those that have a named target and a result. Over the whole deposit, 98 (0.43%) got an active call. 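Only hit calls are given; the phospho-dAkt signals, z-scores and hit direction were not deposited.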 A plus sign joins genes that one reagent is predicted to hit. Reagent sequences are not shown.

| gene | dsRNA | activity call |
| --- | --- | --- |
| CG8492 | DRSC10984 | inactive |
| CG8492 | DRSC21804 | inactive |
| CG12824 | DRSC06173 | inactive |
| Su(z)2 (Suppressor of zeste 2) | DRSC07558 | inactive |
| lncRNA:CR31526 (long non-coding RNA:CR31526) | DRSC21520 | inactive |
| mRpS6 (mitochondrial ribosomal protein S6) | DRSC08470 | inactive |
| Lon (Lon protease) | DRSC11049 | inactive |
| CG9903 | DRSC20213 | inactive |
| Cpr49Ag (Cuticular protein 49Ag) | DRSC07203 | inactive |
| CG34280 | DRSC13229 | inactive |
| CG34427 | DRSC09978 | inactive |
| CG18810 | DRSC02701 | inactive |
| CG14247 | DRSC14742 | inactive |
| brwl (brickwall) | DRSC01080 | inactive |
| brwl (brickwall) | DRSC02729 | inactive |
| Prim2 (DNA primase subunit 2) | DRSC11610 | inactive |
| Gbs-70E (Glycogen binding subunit 70E) | DRSC11055 | inactive |
| CG10841 | DRSC14271 | inactive |
| CG11437 | DRSC11659 | inactive |
| Osi14 (Osiris 14) | DRSC12368 | inactive |
| CG11034 | DRSC02121 | inactive |
| CG11034 | DRSC02122 | inactive |
| Gycbeta100B (Guanylyl cyclase beta-subunit at 100B) | DRSC14039 | inactive |
| Gycbeta100B (Guanylyl cyclase beta-subunit at 100B) | DRSC14040 | inactive |
| Gycbeta100B (Guanylyl cyclase beta-subunit at 100B) | DRSC16691 | inactive |
| CG5819 | DRSC04520 | inactive |
| CG7963 | DRSC16355 | inactive |
| Cpr47Ea (Cuticular protein 47Ea) | DRSC07333 | inactive |
| Idh3a (Isocitrate dehydrogenase 3a) | DRSC19446 | inactive |
| CG9338 | DRSC03213 | inactive |
| CG46491 | DRSC06565 | inactive |
| CG46491 | DRSC06566 | inactive |
| eIF2Balpha (eukaryotic translation initiation factor 2B subunit alpha) | DRSC16332 | inactive |
| CG33521 | DRSC17179 | inactive |
| CG33521 | DRSC17211 | inactive |
| CG33521 | DRSC22919 | inactive |
| yem (yemanuclein) | DRSC14865 | inactive |
| yem (yemanuclein) | DRSC17097 | inactive |
| CG4364 | DRSC02742 | inactive |
| CG6733 | DRSC16103 | inactive |
| CG7024 | DRSC18414 | inactive |
| CG33093 | DRSC15775 | inactive |
| CG31675 | DRSC01825 | inactive |
| CG9663 | DRSC00724 | inactive |
| Drsl4 (Drosomycin-like 4) | DRSC08034 | inactive |
| CG15376 (retired record) | DRSC18046 | inactive |
| CG11403 | DRSC18532 | inactive |
| Nep5 (Neprilysin 5) | DRSC16004 | inactive |
| Vajk1 | DRSC01882 | inactive |
| m-cup (mann-cup) | DRSC14430 | inactive |
| CG8026 | DRSC07055 | inactive |
| CG8026 | DRSC07056 | inactive |
| CG34034 | DRSC13506 | inactive |
| Osi15 (Osiris 15) | DRSC12178 | inactive |
| mRpS34 (mitochondrial ribosomal protein S34) | DRSC09918 | inactive |
| CG5773 | DRSC06955 | inactive |
| Ir94a (Ionotropic receptor 94a) | DRSC13538 | inactive |
| CG3589 | DRSC04392 | inactive |
| Vps36 (Vacuolar protein sorting 36) | DRSC09785 | inactive |
| Dhps (Deoxyhypusine synthase) | DRSC10948 | inactive |
| CG8420 | DRSC16418 | inactive |
| Dhc62B (Dynein heavy chain at 62B) | DRSC08655 | inactive |
| CG17652 | DRSC00511 | inactive |
| Acp63F (Accessory gland protein 63F) | DRSC08137 | inactive |
| htl (heartless) | DRSC16968 | inactive |
| fog (folded gastrulation) | DRSC20646 | inactive |
| CG13920 | DRSC08389 | inactive |
| CG9458 | DRSC16495 | inactive |
| CG3376 | DRSC04362 | inactive |
| Sin3A | DRSC07552 | inactive |
| pan (pangolin) | DRSC17176 | inactive |
| pan (pangolin) | DRSC22582 | inactive |
| CG34297 | DRSC12410 | inactive |
| CG11892 | DRSC14428 | inactive |
| Naglu (N-acetyl-alpha-glucosaminidase) | DRSC02267 | inactive |
| CG14947 | DRSC02429 | inactive |
| Polr1F (RNA polymerase I subunit F) | DRSC02278 | inactive |
| CG10543 | DRSC04081 | inactive |
| KrT95D (Krueppel target at 95D) | DRSC16725 | inactive |
| CG15499 (retired record) | DRSC15041 | inactive |
| CG7607 | DRSC10889 | inactive |
| CG11007 | DRSC06023 | inactive |
| tud (tudor) | DRSC04719 | inactive |
| Mer (Merlin) | DRSC20259 | inactive |
| CG5781 | DRSC02893 | inactive |
| Cda9 (Chitin deacetylase-like 9) | DRSC06593 | inactive |
| CG31556 (retired record) | DRSC12122 | inactive |
| CG31556 (retired record) | DRSC22177 | inactive |
| janB (janus B) | DRSC16973 | inactive |
| SkpE (SKP1-related E) | DRSC19431 | inactive |
| CG14253 | DRSC14748 | inactive |
| CG5199 | DRSC11770 | inactive |
| gkt (glaikit) | DRSC00821 | inactive |
| Tsp42Eb + CG30160 | DRSC04961 | inactive |
| Tsp42Eb + CG30160 | DRSC06791 | inactive |
| Arp8 (Actin-related protein 8) | DRSC20059 | inactive |
| Ir84a (Ionotropic receptor 84a) | DRSC12510 | inactive |
| Cyfip (Cytoplasmic FMR1 interacting protein) | DRSC15679 | inactive |
| gsb (gooseberry) | DRSC04692 | inactive |
| CG13288 | DRSC09962 | inactive |
| rictor (rapamycin-insensitive companion of Tor) | DRSC20071 | active |
| CG18095 | DRSC01948 | inactive |
| lncRNA:CR32657 (long non-coding RNA:CR32657) | DRSC19403 | inactive |
| Hexim (Hexamethylene bisacetamide inducible) | DRSC15490 | inactive |
| CG13157 | DRSC06282 | inactive |
| Phb1 (Prohibitin 1) | DRSC03563 | inactive |
| cnc (cap-n-collar) | DRSC14676 | inactive |
| cnc (cap-n-collar) | DRSC15289 | inactive |
| cnc (cap-n-collar) | DRSC15600 | inactive |
| cnc (cap-n-collar) | DRSC15601 | inactive |
| CG8195 | DRSC07103 | inactive |
| CG34327 | DRSC19517 | inactive |
| CG34327 | DRSC22380 | inactive |
| CG32751 | DRSC21770 | inactive |
| sqd (squid) | DRSC15160 | inactive |
| sqd (squid) | DRSC17066 | inactive |
| kek1 (kekkon 1) | DRSC03551 | inactive |
| CG33143 | DRSC04151 | inactive |
| CG33143 | DRSC04454 | active |
| CG13311 | DRSC09982 | inactive |
| CG9662 | DRSC00723 | inactive |
| Wdr82 (WD repeat domain 82) | DRSC02595 | inactive |
| Wdr82 (WD repeat domain 82) | DRSC21723 | inactive |
| AnxB9 (Annexin B9) | DRSC14111 | inactive |
| Uck (Uridine-cytidine kinase) | DRSC13661 | inactive |
| Uck (Uridine-cytidine kinase) | DRSC16028 | inactive |
| CG7376 | DRSC10829 | inactive |
| shot (short stop) | DRSC05459 | inactive |
| shot (short stop) | DRSC05460 | inactive |
| shot (short stop) | DRSC07682 | inactive |
| stj (straightjacket) | DRSC06124 | inactive |
| Top2 (Topoisomerase 2) | DRSC03459 | inactive |
| CG11816 | DRSC19428 | inactive |
| CG3690 | DRSC18170 | inactive |
| CG3690 | DRSC18641 | inactive |
| snoRNA:Me28S-C3420b + RpS11 | DRSC07396 | inactive |
| CG31102 | DRSC14260 | inactive |
| CG1316 | DRSC08304 | inactive |
| CG1299 | DRSC08300 | inactive |
| CG31368 | DRSC14949 | inactive |
| CG31368 | DRSC14951 | inactive |
| CG9676 | DRSC20204 | inactive |
| CG17625 | DRSC15249 | inactive |
| CG3704 | DRSC18174 | inactive |
| CG3704 | DRSC18645 | inactive |
| deltaCOP (Coat Protein (coatomer) delta) | DRSC18760 | inactive |
| drosha | DRSC07607 | inactive |
| Mst57Dc (Male-specific transcript 57Dc) | DRSC16745 | inactive |
| Nost (Nostrin) | DRSC18037 | inactive |
| Nost (Nostrin) | DRSC18338 | inactive |
| Fas3 (Fasciclin 3) | DRSC01638 | inactive |
| Fas3 (Fasciclin 3) | DRSC03326 | inactive |
| Fas3 (Fasciclin 3) | DRSC22776 | inactive |
| CG14492 | DRSC06463 | inactive |
| CG3719 | DRSC18493 | inactive |
| Spt5 | DRSC07556 | inactive |
| CG14965 | DRSC08424 | inactive |
| CAH14 (Carbonic anhydrase 14) | DRSC04234 | inactive |
| CAH14 (Carbonic anhydrase 14) | DRSC22160 | inactive |
| CG13561 | DRSC04199 | inactive |
| sqa (spaghetti-squash activator) | DRSC06693 | inactive |
| sqa (spaghetti-squash activator) | DRSC21635 | inactive |
| Nha1 (Na[+]/H[+] hydrogen antiporter 1) | DRSC02109 | inactive |
| Lst8 | DRSC18262 | active |
| CG6324 | DRSC19985 | inactive |
| CG3062 | DRSC18572 | inactive |
| CG7536 | DRSC20050 | inactive |
| CG33333 | DRSC13233 | inactive |
| CG15695 | DRSC15117 | inactive |
| CG3436 | DRSC00605 | inactive |
| Arts + Apl | DRSC10349 | inactive |
| CG31464 | DRSC14345 | inactive |
| boly (borrelly) | DRSC21629 | inactive |
| CG16970 (retired record) | DRSC01310 | inactive |
| CG16970 (retired record) | DRSC02549 | inactive |
| CG15117 | DRSC06539 | inactive |
| Naa20B (N(alpha)-acetyltransferase 20 B) | DRSC21442 | inactive |
| Mst98Ca (Male-specific RNA 98Ca) | DRSC16749 | inactive |
| RnpS1 (RNA-binding protein S1) | DRSC15154 | inactive |
| beat-VI (beaten path VI) | DRSC14474 | inactive |
| beat-VI (beaten path VI) | DRSC14727 | inactive |
| LSm3 (Like Sm 3) | DRSC15920 | inactive |
| Hmgcl (3-Hydroxymethyl-3-methylglutaryl-CoA lyase) | DRSC02051 | inactive |
| Swip-1 (Swiprosin-1) | DRSC02083 | inactive |
| Swip-1 (Swiprosin-1) | DRSC02084 | inactive |
| Non2 (Novel nucleolar protein 2) | DRSC08272 | inactive |
| CG12116 | DRSC17812 | inactive |
| CG10602 | DRSC02075 | inactive |
| CG11018 | DRSC06024 | inactive |
| Dph3 (Diphthamide biosynthesis 3) | DRSC14923 | inactive |
| CG1371 | DRSC06409 | inactive |
| CG31688 + CG31687 | DRSC02116 | inactive |
| CG33252 | DRSC19162 | inactive |
| CG31798 | DRSC01702 | inactive |
| GV1 | DRSC08228 | inactive |
| Aldh7A1 (Aldehyde dehydrogenase 7 family member A1) | DRSC11083 | inactive |
| CG14891 | DRSC15013 | inactive |
| Mef2 (Myocyte enhancer factor 2) | DRSC07468 | inactive |
| CG9135 | DRSC03144 | inactive |
| CG13231 | DRSC06351 | inactive |

Targets listed so far whose target name starts with Y or y:
| gene | dsRNA | activity call |
| --- | --- | --- |
| yem (yemanuclein) | DRSC14865 | inactive |
| yem (yemanuclein) | DRSC17097 | inactive |
